Results: patent US20040154051A1 (SYNGENTA PARTICIPATIONS, published 2004)
These are yes or no findings as the source states them, for the method shown. Some binding calls cover weakened binding; strength is not graded here. Where a sequence is shown, tags or fusion partners need not be part of it.

Chains of the proteins cited; added tags and fusions are not shown. Lines headed by an entry give the natural chain unless they say otherwise; changes in a name come on top.
UniProt P0A7C2: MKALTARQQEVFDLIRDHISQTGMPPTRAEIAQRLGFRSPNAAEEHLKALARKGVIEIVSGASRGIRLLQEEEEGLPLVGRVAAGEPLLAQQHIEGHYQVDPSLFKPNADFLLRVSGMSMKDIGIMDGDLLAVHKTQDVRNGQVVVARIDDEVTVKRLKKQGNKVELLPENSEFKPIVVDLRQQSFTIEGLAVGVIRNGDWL
UniProt P93002: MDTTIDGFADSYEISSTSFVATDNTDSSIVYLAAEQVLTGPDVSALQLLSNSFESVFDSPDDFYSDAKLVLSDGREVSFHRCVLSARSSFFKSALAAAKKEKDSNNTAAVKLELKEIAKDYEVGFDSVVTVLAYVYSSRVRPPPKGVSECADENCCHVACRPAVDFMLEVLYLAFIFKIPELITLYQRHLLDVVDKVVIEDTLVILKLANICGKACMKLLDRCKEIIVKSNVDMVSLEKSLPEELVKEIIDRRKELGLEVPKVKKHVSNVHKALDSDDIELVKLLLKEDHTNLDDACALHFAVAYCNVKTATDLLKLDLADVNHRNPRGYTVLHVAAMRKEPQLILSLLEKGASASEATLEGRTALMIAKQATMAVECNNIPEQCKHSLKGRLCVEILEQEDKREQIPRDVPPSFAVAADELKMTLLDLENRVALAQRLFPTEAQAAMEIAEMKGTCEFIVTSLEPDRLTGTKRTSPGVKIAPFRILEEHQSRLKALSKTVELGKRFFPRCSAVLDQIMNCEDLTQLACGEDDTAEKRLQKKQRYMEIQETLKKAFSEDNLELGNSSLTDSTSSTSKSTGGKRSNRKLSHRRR

Assays:
[1] = target: NIM366-594 bait (C-terminal portion of NIM1, amino acids 366-594, LexA fusion) (Arabidopsis) (UniProt P0A7C2+P93002); assay: yeast two-hybrid screen (LexA bait, B42 prey library; Leu2 and LacZ reporters)
[2] = target: full-length NIM1 bait (full length Arabidopsis NIM1 fused to the LexA DNA binding domain in pEG202) (Arabidopsis) (UniProt P0A7C2+P93002); assay: as above

B1: NI16 clone (Arabidopsis NI16 cDNA clone from the pJG4-5 library, fused to the B42 transcriptional activation domain) (other, not shown: large carriers)
chain: MNNSLKKEERVEEDNGKSDGNRGKPSTEVVRTVTEEEVDEFFKILRRVHVATRTVAKVNGGVAEGELPSKKRKRSQNLGLRNSLDCNGVRDGEFDEINRVGLQGLGLDLNCKPEPDSVSLSL
notes: also called NI16 protein
binding [1]: binds | binding [2]: binds
